Data: publication PMC10881398, “O-glycosylation of the transcription factor SPATULA promotes style development in Arabidopsis” (Nature Plants, 2024)
These are yes or no findings as the source states them, for the method shown. For some of these results: Binding seen in cells or lysates may run through a third protein. Some binding calls cover weakened binding; strength is not graded here. Where a sequence is shown, tags or fusion partners need not be part of it.

Assays:
[1] = target: T1, SPY full length, yeast two-hybrid bait (BD) (Arabidopsis thaliana) (UniProt Q96301); assay: two-hybrid; yeast AH109; SEC and SPY as bait (BD), SPT as prey (AD); growth on SD/−Ade/−His/−Leu/−Trp and with 2.5 mM 3-AT, serial dilutions, five days at 28 °C
T1 sequence: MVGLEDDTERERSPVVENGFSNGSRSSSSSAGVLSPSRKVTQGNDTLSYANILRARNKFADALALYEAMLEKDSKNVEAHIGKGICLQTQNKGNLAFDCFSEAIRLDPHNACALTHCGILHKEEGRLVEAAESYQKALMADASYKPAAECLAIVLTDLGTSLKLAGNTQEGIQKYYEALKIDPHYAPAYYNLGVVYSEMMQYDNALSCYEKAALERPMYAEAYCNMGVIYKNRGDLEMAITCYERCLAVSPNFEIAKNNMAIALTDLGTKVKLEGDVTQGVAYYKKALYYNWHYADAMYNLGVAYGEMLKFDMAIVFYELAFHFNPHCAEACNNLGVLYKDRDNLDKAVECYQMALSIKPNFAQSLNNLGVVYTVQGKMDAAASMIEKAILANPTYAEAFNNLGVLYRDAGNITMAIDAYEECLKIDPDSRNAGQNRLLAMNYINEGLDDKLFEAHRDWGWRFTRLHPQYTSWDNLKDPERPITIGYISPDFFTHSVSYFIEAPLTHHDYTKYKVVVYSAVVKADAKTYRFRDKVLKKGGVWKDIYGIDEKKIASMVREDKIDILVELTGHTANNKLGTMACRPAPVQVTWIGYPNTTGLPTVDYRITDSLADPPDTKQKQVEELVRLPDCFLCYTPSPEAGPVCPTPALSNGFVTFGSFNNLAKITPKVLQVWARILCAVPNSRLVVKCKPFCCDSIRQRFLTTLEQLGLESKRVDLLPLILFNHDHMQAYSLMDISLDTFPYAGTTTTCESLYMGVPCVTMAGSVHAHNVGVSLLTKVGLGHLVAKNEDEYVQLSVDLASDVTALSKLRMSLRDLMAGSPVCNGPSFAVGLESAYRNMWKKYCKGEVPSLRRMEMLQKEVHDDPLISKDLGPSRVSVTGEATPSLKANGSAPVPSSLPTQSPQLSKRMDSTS

[2] = target: T2, SEC full length, yeast two-hybrid bait (BD) (Arabidopsis thaliana) (UniProt Q9M8Y0); assay: as above
T2 sequence: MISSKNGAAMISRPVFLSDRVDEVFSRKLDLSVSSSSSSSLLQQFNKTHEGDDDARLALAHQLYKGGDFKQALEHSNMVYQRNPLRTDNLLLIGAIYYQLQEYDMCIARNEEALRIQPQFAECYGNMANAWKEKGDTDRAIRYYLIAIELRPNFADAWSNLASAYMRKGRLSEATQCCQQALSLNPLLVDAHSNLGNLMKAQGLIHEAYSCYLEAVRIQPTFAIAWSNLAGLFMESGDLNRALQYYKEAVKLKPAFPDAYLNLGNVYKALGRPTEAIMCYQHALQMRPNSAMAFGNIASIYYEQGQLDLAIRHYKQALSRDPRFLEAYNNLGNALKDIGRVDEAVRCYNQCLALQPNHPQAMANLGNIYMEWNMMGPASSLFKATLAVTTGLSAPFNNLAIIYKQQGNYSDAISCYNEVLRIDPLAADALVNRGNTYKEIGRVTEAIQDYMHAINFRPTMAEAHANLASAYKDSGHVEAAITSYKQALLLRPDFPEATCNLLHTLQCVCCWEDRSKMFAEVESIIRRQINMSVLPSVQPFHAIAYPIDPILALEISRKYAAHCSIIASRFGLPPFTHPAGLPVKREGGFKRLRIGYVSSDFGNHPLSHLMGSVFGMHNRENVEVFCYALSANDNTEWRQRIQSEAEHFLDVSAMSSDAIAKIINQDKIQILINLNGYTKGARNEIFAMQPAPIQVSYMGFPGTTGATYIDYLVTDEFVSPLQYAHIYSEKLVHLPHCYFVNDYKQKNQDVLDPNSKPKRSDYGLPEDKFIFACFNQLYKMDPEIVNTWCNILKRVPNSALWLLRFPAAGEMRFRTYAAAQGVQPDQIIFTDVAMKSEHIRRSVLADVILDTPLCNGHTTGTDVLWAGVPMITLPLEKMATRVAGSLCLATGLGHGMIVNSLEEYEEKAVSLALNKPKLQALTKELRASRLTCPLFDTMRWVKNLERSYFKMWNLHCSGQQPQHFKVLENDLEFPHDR

[3] = target: T3, HEC1, yeast two-hybrid fusion (Arabidopsis thaliana) (UniProt Q9FHA7); assay: as above
T3 sequence: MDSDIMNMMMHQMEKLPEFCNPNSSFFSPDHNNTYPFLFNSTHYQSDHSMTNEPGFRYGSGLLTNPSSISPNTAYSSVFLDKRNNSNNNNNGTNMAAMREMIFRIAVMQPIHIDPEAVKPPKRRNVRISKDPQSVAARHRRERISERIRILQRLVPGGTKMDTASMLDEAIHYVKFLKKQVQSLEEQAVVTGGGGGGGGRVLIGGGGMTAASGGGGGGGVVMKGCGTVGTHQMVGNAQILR

[4] = target: T4, SEC–cLuc (35S::SEC–cLuc) (Arabidopsis thaliana) (UniProt Q9M8Y0); assay: split reporter; split-luciferase complementation in N. benthamiana leaves, 35S::SPT–nLuc co-infiltrated with 35S::SEC–cLuc or 35S::SPY–cLuc (with P19), 48 h, 0.4 mM D-luciferin; empty nLuc and cLuc vectors as controls
T4 sequence: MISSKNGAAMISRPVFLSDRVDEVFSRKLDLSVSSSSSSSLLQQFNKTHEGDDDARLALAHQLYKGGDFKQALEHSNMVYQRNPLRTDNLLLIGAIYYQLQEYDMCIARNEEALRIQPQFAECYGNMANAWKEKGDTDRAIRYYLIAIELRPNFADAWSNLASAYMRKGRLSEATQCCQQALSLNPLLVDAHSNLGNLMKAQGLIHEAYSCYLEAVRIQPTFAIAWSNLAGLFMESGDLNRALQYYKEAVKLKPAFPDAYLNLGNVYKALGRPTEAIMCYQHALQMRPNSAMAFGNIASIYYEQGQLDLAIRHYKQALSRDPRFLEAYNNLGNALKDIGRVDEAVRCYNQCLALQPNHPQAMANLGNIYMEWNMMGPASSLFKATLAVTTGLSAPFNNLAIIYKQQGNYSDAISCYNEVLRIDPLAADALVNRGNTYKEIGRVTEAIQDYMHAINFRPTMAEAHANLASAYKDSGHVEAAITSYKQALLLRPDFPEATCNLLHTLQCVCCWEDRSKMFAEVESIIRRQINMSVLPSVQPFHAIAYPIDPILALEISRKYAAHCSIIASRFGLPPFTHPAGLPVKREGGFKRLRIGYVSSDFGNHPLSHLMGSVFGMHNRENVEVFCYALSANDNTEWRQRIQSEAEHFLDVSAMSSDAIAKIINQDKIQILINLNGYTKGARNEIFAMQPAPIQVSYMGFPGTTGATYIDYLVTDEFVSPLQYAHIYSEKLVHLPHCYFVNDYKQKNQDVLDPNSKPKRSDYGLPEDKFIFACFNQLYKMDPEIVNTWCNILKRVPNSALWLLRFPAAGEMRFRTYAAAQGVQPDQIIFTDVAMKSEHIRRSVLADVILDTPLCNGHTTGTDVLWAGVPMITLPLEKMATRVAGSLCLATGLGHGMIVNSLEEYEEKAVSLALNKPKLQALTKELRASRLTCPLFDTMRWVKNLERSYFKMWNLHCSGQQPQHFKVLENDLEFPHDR

[5] = target: T5, SPY–cLuc (35S::SPY–cLuc) (Arabidopsis thaliana) (UniProt Q96301); assay: as above
T5 sequence: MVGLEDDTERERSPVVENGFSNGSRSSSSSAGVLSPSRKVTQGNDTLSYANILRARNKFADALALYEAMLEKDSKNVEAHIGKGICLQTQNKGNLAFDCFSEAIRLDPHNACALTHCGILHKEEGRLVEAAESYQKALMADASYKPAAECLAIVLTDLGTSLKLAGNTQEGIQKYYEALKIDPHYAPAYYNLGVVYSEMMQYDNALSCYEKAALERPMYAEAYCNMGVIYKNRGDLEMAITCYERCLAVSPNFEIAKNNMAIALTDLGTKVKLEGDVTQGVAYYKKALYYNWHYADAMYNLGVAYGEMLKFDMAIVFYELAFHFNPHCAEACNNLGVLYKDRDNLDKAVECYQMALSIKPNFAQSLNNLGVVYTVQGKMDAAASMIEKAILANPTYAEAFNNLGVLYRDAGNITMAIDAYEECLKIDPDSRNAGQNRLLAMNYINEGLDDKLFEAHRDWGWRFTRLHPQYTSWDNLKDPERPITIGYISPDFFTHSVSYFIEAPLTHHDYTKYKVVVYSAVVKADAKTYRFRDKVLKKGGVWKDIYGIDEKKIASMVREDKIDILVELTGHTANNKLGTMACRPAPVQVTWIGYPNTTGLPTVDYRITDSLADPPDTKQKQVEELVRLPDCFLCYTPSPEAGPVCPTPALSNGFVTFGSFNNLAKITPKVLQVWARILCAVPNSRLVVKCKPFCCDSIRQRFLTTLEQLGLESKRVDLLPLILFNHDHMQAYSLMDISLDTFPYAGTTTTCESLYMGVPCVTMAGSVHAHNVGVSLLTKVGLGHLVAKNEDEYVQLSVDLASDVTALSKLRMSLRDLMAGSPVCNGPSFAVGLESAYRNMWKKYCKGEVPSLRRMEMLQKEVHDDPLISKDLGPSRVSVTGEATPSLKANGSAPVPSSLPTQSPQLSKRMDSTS

Row | Binder | binding [1] | binding [2] | binding [3] | binding [4] | binding [5]
1 | SPT C-terminal truncation (residues 136–373), yeast two-hybrid prey (AD) (domain or fragment, UniProt Q9FUA4 136-373) GNNNNVQGNSSGTRVSSSSVGASGNETDEYDCESEEGGEAVVDEAPSSKSGPSSRSSSKRCRAAEVHNLSEKRRRSRINEKMKALQSLIPNSNKTDKASMLDEAIEYLKQLQLQVQMLTMRNGINLHPLCLPGTTLHPLQLSQIRPPEATNDPLLNHTNQFASTSNAPEMINTVASSYALEPSIRSHFGPFPLLTSPVEMSREGGLTHPRLNIGHSNANITGEQALFDGQPDLKDRIT | no binding | binds | binds |  | 
2 | full-length SPT–nLuc (35S::SPT–nLuc) (protein, UniProt Q9FUA4 1-373) MISQREEREEKKQRVMGDKKLISSSSSSSVYDTRINHHLHHPPSSSDEISQFLRHIFDRSSPLPSYYSPATTTTTASLIGVHGSGDPHADNSRSLVSHHPPSDSVLMSKRVGDFSEVLIGGGSGSAAACFGFSGGGNNNNVQGNSSGTRVSSSSVGASGNETDEYDCESEEGGEAVVDEAPSSKSGPSSRSSSKRCRAAEVHNLSEKRRRSRINEKMKALQSLIPNSNKTDKASMLDEAIEYLKQLQLQVQMLTMRNGINLHPLCLPGTTLHPLQLSQIRPPEATNDPLLNHTNQFASTSNAPEMINTVASSYALEPSIRSHFGPFPLLTSPVEMSREGGLTHPRLNIGHSNANITGEQALFDGQPDLKDRIT |  |  |  | binds | binds
3 | SPT full length, yeast two-hybrid prey (AD) (protein, UniProt Q9FUA4 1-373) MISQREEREEKKQRVMGDKKLISSSSSSSVYDTRINHHLHHPPSSSDEISQFLRHIFDRSSPLPSYYSPATTTTTASLIGVHGSGDPHADNSRSLVSHHPPSDSVLMSKRVGDFSEVLIGGGSGSAAACFGFSGGGNNNNVQGNSSGTRVSSSSVGASGNETDEYDCESEEGGEAVVDEAPSSKSGPSSRSSSKRCRAAEVHNLSEKRRRSRINEKMKALQSLIPNSNKTDKASMLDEAIEYLKQLQLQVQMLTMRNGINLHPLCLPGTTLHPLQLSQIRPPEATNDPLLNHTNQFASTSNAPEMINTVASSYALEPSIRSHFGPFPLLTSPVEMSREGGLTHPRLNIGHSNANITGEQALFDGQPDLKDRIT | binds | binds |  |  | 
